Laboratory results taken from PMC3314686.
No constants are given. Whether binding was seen depends on the method and setting. In cells and extracts the contact can be indirect. Binding calls can cover weak binding; strength is not graded here. Where a sequence is shown, tags or fusion partners need not be part of it.

B1: GFP-DOR (aa 27-46), LIR peptide of DOR (domain or fragment, UniProt Q8IXH6 27-46)
chain: SEEDEVDGWLIIDLPDSYAA
modifications: [35S]methionine label
B2: GFP-TP53INP1 (aa 23-42), LIR peptide of TP53INP1 (domain or fragment, UniProt Q96A56 23-42)
chain: FNEKEDDEWILVDFIDTCTG
modifications: [35S]methionine label
B3: GFP-DOR (human DOR/TP53INP2, full length) (protein, UniProt Q8IXH6 1-220)
chain: MFQRLSSLFFSTPSPPEDPDCPRAFVSEEDEVDGWLIIDLPDSYAAPPSPGAAPAPAGRPPPAPSLMDESWFVTPPACFTAEGPGLGPARLQSSPLEDLLIEHPSMSVYVTGSTIVLEPGSPSPLPDAALPDGDLSEGELTPARREPRAARHAAPLPARAALLEKAGQVRRLQRARQRAERHALSAKAVQRQNRARESRPRRSKNQSSFIYQPCQRQFNY
modifications: [35S]methionine label

Molecular target: GST-LC3C (ΔG) (human)
Assay: pull-down; GST fusion proteins purified and immobilized on glutathione-sepharose beads; 35S-labelled in vitro translated GFP-tagged proteins diluted 20x in NET-N buffer (20 mM Tris-HCl pH 8.0, 100 mM NaCl, 1 mM EDTA, 0.5% Nonidet P-40), pre-cleared, incubated at least 2 h at 4°C; five washes; SDS-PAGE and autoradiography; only the target purified

Row | Binder | binding
1 | B1 | binds
2 | B2 | binds
3 | B3 | binds
